Percent effect of library compounds

Amino acid sequences for entries named in this document (tags omitted). Residues count along the entry.
UniProt I6X8D2, whole entry: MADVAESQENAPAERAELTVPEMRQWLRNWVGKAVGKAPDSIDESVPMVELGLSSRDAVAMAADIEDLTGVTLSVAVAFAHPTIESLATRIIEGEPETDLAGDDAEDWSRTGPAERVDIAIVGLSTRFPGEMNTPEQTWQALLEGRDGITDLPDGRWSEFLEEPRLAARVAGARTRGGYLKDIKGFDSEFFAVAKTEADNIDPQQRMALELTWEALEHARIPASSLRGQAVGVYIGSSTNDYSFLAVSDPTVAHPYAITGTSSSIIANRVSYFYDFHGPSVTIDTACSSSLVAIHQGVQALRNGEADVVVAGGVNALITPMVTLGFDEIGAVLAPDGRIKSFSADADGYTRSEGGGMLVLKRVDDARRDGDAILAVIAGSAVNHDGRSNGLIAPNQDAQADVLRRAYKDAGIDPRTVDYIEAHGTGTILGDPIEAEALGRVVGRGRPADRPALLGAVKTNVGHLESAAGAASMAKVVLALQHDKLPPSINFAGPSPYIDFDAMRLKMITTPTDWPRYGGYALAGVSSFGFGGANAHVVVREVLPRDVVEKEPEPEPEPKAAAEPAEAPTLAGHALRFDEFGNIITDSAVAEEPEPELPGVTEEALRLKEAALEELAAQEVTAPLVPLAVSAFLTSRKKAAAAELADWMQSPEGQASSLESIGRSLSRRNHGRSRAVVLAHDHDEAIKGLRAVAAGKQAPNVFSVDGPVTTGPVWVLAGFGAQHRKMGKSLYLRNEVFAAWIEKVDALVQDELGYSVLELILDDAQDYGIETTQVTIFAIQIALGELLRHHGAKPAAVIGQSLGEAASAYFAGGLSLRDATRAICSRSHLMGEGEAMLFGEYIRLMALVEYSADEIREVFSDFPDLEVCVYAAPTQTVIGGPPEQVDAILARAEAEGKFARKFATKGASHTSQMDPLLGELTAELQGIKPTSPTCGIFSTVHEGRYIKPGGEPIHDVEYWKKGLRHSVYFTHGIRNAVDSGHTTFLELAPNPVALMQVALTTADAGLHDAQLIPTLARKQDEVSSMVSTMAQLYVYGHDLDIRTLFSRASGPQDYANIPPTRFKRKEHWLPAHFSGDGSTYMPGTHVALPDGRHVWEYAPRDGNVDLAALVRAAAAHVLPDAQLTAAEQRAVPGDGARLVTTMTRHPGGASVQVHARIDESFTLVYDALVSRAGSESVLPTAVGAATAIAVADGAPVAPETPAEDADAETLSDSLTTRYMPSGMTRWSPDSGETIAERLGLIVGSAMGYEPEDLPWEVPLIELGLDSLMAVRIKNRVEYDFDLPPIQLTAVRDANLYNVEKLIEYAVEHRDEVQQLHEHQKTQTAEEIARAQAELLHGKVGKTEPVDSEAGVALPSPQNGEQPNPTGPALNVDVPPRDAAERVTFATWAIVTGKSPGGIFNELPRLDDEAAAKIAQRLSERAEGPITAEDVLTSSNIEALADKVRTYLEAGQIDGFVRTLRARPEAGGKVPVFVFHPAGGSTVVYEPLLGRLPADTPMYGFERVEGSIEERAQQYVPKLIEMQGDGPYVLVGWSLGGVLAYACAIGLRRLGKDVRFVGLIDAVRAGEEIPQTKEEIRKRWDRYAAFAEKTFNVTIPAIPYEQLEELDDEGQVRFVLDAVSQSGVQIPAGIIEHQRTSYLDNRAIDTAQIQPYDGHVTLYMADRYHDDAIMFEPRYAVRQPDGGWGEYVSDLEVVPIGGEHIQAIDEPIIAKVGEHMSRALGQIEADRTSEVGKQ
UniProt P9WNZ1, whole entry: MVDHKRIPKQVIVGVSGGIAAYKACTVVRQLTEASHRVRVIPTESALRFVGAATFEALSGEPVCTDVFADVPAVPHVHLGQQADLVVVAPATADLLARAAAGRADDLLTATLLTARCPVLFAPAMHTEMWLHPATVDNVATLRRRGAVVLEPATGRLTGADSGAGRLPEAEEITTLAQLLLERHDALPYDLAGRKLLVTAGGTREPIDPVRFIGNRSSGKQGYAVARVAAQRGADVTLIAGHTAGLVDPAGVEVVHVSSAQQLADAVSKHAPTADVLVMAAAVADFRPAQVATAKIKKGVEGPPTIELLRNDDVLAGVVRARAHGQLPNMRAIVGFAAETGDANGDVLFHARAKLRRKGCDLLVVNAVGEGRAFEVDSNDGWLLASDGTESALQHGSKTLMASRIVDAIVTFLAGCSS
UniProt Q8IDJ8, 1-583: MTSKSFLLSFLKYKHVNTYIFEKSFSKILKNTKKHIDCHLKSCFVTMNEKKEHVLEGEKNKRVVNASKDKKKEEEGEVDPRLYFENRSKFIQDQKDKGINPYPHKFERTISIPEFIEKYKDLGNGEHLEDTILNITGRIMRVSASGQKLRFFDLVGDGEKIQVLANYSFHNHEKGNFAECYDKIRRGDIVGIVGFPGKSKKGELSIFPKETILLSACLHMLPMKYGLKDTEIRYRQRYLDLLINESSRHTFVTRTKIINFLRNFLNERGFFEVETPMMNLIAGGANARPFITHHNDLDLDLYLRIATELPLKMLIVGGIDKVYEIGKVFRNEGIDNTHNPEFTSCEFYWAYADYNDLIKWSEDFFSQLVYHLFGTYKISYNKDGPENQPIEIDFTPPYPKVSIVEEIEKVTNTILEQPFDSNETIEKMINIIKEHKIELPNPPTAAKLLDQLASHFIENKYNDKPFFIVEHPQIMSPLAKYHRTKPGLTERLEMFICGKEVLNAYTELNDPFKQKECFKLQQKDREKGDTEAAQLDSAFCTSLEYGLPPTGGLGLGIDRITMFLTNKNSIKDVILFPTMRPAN
UniProt Q4DA54, 1-478: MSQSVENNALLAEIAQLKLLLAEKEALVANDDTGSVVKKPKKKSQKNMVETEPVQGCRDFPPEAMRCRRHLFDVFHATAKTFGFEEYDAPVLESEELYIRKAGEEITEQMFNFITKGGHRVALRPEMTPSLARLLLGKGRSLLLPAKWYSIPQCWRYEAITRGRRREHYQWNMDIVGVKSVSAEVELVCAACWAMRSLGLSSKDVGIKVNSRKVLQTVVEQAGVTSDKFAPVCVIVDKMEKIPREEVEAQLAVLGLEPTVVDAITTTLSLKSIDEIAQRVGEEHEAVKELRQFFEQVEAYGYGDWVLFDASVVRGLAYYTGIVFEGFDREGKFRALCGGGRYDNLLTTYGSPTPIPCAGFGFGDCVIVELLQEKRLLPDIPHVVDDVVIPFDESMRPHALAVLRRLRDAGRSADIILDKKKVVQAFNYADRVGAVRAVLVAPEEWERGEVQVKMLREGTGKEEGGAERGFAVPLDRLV

Source: ChEMBL document CHEMBL3988442, “University of Dundee, Small-Polar-MMV Screening Library” (2021).

The filed quantity is “Percent Effect” (%).
How 0% and 100% were set is not recorded. Most values in the screen are low, and negative values occur.
This is an unselected part of the compounds tested.
Two or more numbers in one place are separate tests of the same structure; such repeats can differ widely.
A dash means the value is not listed here; it may have been measured.

A: 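Enzyme assay of the thioesterase domain of polyketide synthase 13; the read-out is not stated. Target: Polyketide synthase Pks13, Mycobacterium tuberculosis (UniProt I6X8D2). Compounds at 30 µM. Higher reads as stronger inhibition (inferred from which compounds were picked for retests). About 67,000 compounds were tested under these conditions; 0.46% (about 300) showed 50% or more at least once.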
B: 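Enzyme assay of CoaBC with a phosphate dye (Biomol Green) read at 650 nm. Target: Coenzyme A biosynthesis protein CoaBC, Mycobacterium tuberculosis (UniProt P9WNZ1). Compounds at 30 µM. Higher reads as stronger inhibition, judged from the few compounds that gave an IC50. Most strong results did not repeat in a second test. Size under these conditions: about 67,000 compounds, about 40 of them at 50% or above in at least one test.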
C: 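Enzyme assay of the cytosolic lysyl-tRNA synthetase in 384-well plates, read by luminescence. Target: Lysine-tRNA ligase, Plasmodium falciparum 3D7 (UniProt Q8IDJ8). Tested at 30 µM. Higher reads as stronger inhibition, judged from the few compounds that gave an IC50. Of about 69,000 compounds tested this way, about 49 (0.071%) reached 50% or more in at least one test.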
D: 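Enzyme assay of histidyl-tRNA synthetase; the read-out is not stated. Target: Histidine-tRNA ligase, Trypanosoma cruzi CL Brener (UniProt Q4DA54). Compounds at 30 µM. The record gives no direction; compounds that gave an IC50 in retests scored well above the rest, so higher reads as stronger inhibition. About 69,000 compounds were tested under these conditions; 0.045% (about 31) showed 50% or more at least once.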

Compound,A,B,C,D
CCN1CC(C)(C)CN(C(=O)CCc2ccccc2)CC1=O,13.8%,2.179%,7.261%,13.48%
O=C(CSc1nnc(N2CCNCC2)s1)Nc1ccccc1,-10.48%,-3.065%,-2.415%,2.424%
CCOc1cc2c(cc1C(=O)O)CCC2,-0.7672%,1.882%,4.79%,3.415%
CC(C)(C)c1cc(=O)[nH]c(-c2ccccc2CN2CCCCCC2)n1,-40.84%,-6.4%,0.4271%,11.49%
CNC(=O)c1cc(NC(=O)NCC2CCS(=O)(=O)C2)ccc1OC (centres undefined),-37%,4.859%,-0.6738%,-5.051%
COc1ccccc1CNC(=O)C1=NN(c2ccc(C)cc2)C(=O)CN1,-54.57%,-2.643%,13.93%,1.695%
Cc1ccc(C(=O)N2CCC3(CCN3c3ncccn3)C2)cn1 (centres undefined),-2.356%,-4.039%,1.021%,6.03%
Cn1cc(CN2C[C@H]3CCN(C(=O)c4cscn4)C[C@H]3C2)cn1,-3.803%,-0.8631%,-7.307%,2.632%
Cc1ccccc1CN1C[C@@H]2OCC(=O)N(CC(N)=O)[C@@H]2C1,-35.33%,8.841%,5.82%,3.483%
Cc1cc2n(n1)CC(CNC1CCN(c3ccccn3)CC1)CN2 (centres undefined),-6.497%,-39.48%,3.793%,3.488%
CN1CCN(S(C)(=O)=O)c2cc(F)ccc21,-12.74%,3.666%,7.866%,8.995%
Cc1ccc(-n2ncc3c2CCCC3N)cc1C (centres undefined),-7.423%,-1.05%,5.31%,3.478%
Cc1n[nH]c(C)c1CCN(C)C(=O)c1ccc(CCC(C)(C)O)cc1,1.321%,-0.6143%,1.123%,7.143%
COc1ccc(NC(=O)N2CCOCC(CN(C)C)C2)c(C)c1 (centres undefined),-14.08%,-4.791%,0.07168%,1.19%
COc1ccc(CCN(C)CCS(=O)(=O)c2ccc(Cl)cc2)cc1OC,5.46%,-3.891%,0.9838%,3.333%
CCn1ccnc1CN1CCCN(C(=O)c2sccc2C#N)CC1,-25.29%,-0.2571%,1.055%,5.263%
CN1C[C@@H]2CC[C@H](C1)N(Cc1ccccc1OCCN1CCOCC1)C2,-6.4%,4.785%,1.778%,6.173%
CN1CCCC(Cc2cc(N(C)C)ncn2)C1 (centres undefined),0.9199%,-3.155%,-0.3855%,5.747%
COCCC(=O)N1CCOCC2(CCN(Cc3cccs3)C2)C1 (centres undefined),-10.55%,2.836%,4.387%,7.619%
O=C(CCn1ccnc1)N1CC[C@H](Oc2cccc(F)c2)[C@@H](O)CC1,-19.53%,1.211%,-0.873%,3.39%
Cc1nc(C)n(CC2CN(c3nnc(C)c(C)c3C#N)CCO2)n1 (centres undefined),-4.84%,-1.064%,0.3032%,4.183%
O=C(Cc1ccccc1Br)NCC(=O)Nc1cn[nH]c1,1.222%,-4.365%,2.671%,5.172%
Cc1cc(C(=O)N2CCN(C(=O)CC(C)C)[C@@H]3CS(=O)(=O)C[C@@H]32)no1,-33.13%,2.195%,3.876%,7.792%
Cc1ccc(N2CCOCC3(CCCN(c4ncc(F)cn4)C3)C2)nn1 (centres undefined),-11.76%,5.977%,2.1%,10.05%
CNc1ncc(CN(C)Cc2cc(O)c3cc(C)cc(C)c3n2)cn1,1.747%,3.14%,4.595%,1.935%
O=C(NC[C@H]1OC[C@@H](NCc2ccc(F)cc2)[C@@H]1O)c1ccncc1,6.501%,6.483%,5.895%,-3.483%
Cc1noc2ncc(S(=O)(=O)Nc3cc(CC(C)(C)C)[nH]n3)cc12,-2.992%,0%,1.436%,6.952%
Cc1cc(NCc2nnc3n2CCCCC3)n2nc(C)c(C)c2n1,14.7%,2.644%,1.045%,1.266%
CCCC(=O)NS(=O)(=O)c1ccc(C#N)c(C(F)(F)F)c1,1.579%,-5.216%,1.362%,9.135%
CC(C)(O)CN1CCN(C(=O)c2cc(Cl)cc3cccnc23)CC1,-13.23%,-1.036%,0.7268%,0%
CN1[C@@H](C(=O)NCC2CC2)C[C@@H]2CN(Cc3ccsc3)C[C@@H]21,-40.22%,2.118%,-0.5714%,1.442%
OC(COc1ccccc1Br)COC1CCOCC1 (centres undefined),-11.12%,-2.408%,5.555%,-0.431%
CC(NC(=O)NCCCN(C)S(C)(=O)=O)c1ccncc1 (centres undefined),-4.294%,-0.7833%,4.621%,5.639%
CNC(=O)NC(C)c1c(F)cccc1Cl (centres undefined),-6.052%,5.762%,1.188%,6.748%
CCOCCCNc1ncc(-c2cccc(F)c2)c(-c2nccn2C)n1,8.386%,3.641%,0.7919%,-15.71%
CC(CNC(=O)c1ccc(Cl)cc1F)N1CCN(C)CC1 (centres undefined),-7.634%,5.741%,-2.547%,5.128%
CS(=O)(=O)c1ccc(CNC(=O)N2CCC(CO)CC2)cc1,-6.123%,0.7874%,-1.697%,2.857%
Cc1nn(C)c(C)c1CC(=O)N1CCCC1Cn1cccn1 (centres undefined),-0.2521%,-0.5076%,3.159%,3.139%
NCC1Cc2cc(Oc3cc(F)c(CN4CCCC4)c(F)c3)ccc2O1 (centres undefined),-3.559%,52.55% & 7.407%,7.587%,1.932%
CCOc1cc(CNC(C)c2ccc(F)cc2)ccn1 (centres undefined),1.528%,-3.194%,-2.669%,1.176%
CN(C)c1nc(CNC(=O)N[C@H](CO)c2ccccc2)cs1,-11.9%,12.5%,-0.822%,2.062%
CCn1cnnc1C1CCCN(C(=O)COc2ccc(Cl)cc2)C1 (centres undefined),-1.222%,9.895%,2.774%,0.8333%
CN1CCCN(C(=O)NCCNc2ncccn2)CC1,-13.39%,-9.197%,-2.915%,-0.2907%
COc1ccc(CN(CCC#N)CCN2CCOCC2)c(OC)c1,-3.654%,-1.687%,-6.773%,2.97%
NCC1CCCCN1C(=O)Cc1cccc(Br)c1 (centres undefined),4.188%,-17.09%,2.582%,10.34%
Cc1csc(C2CCCCN2C(=O)c2cc(Cl)c[nH]2)n1 (centres undefined),-11.94%,-1.513%,0.6846%,4.942%
O=C(O)c1cc(Br)cnc1OCC1CC1,-1.43%,5.754%,4.547%,7.292%
CC(C)NC(=O)c1sc2ccccc2c1[C@H]1CC[C@H](CN)CC1,-7.997%,4.276%,-2.136%,6.923%
Cc1cc(NC(=O)N2CCN(C)CC2C)n(C)n1 (centres undefined),-34.99%,3.846%,2.438%,1.97%
Cc1ccc(CNc2nc(O)cc(C3CC(=O)N(C)C3)n2)cc1 (centres undefined),13.94%,0.4902%,3.165%,10.64%
CCCNC(=O)c1cc(-c2ccn(C(C)C)n2)n2ccccc12,-60.26%,-,11.65%,6.329%
Cc1ncsc1CN1C[C@@H]2CCCO[C@@H]2[C@H](N(C)C(C)C)C1,-15.25%,5.285%,2.603%,4.301%

The last 4 entries again:

- Cc1cc(NC(=O)N2CCN(C)CC2C)n(C)n1 (centres undefined) | A: -34.99%; B: 3.846%; C: 2.438%; D: 1.97%
- Cc1ccc(CNc2nc(O)cc(C3CC(=O)N(C)C3)n2)cc1 (centres undefined) | A: 13.94%; B: 0.4902%; C: 3.165%; D: 10.64%
- CCCNC(=O)c1cc(-c2ccn(C(C)C)n2)n2ccccc12 | A: -60.26%; C: 11.65%; D: 6.329%
- Cc1ncsc1CN1C[C@@H]2CCCO[C@@H]2[C@H](N(C)C(C)C)C1 | A: -15.25%; B: 5.285%; C: 2.603%; D: 4.301%